Laboratory results reported in PubChem BioAssay AID540276 (National Center for Advancing Translational Sciences (NCATS), 2011).
In all, about 300,000 compounds went through this assay and about 5,400 (1.8%) were called active. The inconclusive results got no clear call from the source; some entries with a clear call stand among them for comparison. Calls come from the whole dose curve; tested in HEK293 cells. Potencies beside an inconclusive call are fits to weak or partial responses and may not hold up.

experiment: qHTS for inhibitors of binding or entry into cells for Marburg Virus; settings: Marburg virus pseudotyped entry inhibition, cell reporter; series mostly up to 37.8 µM
Potency is the fitted concentration of half-maximal effect.

Structure (SMILES) | Potency
Cc1nn(-c2ccccc2)c(C)c1NC(=O)COc1ccc(Br)cc1Cl | inactive
Cc1ccc(C)n1-c1nn(S(=O)(=O)c2cccc(C(F)(F)F)c2)c2cccc(F)c12 | inconclusive: 7.94 µM [inhibitor, partial curve, poor fit]
CC1=CC[C@@H](COc2ccccc2)O[C@@]2(C1)C(=O)N(Cc1ccc(Br)cc1)c1cccc(Br)c12 | inactive
Nc1cc(=O)[nH]c2ncnn12 | inconclusive: 11.2 µM [activator, partial curve, poor fit]
O=C1/C(=C\Nc2ccc(Cl)cc2)CCN1c1ncccn1 | inconclusive: 1 µM [activator, full curve, poor fit]
CCOc1ccccc1NC(=O)COC(=O)c1cccc(-c2ccc(OC(C)=O)cc2)c1 | inconclusive: 6.31 µM [activator, single point]
C/C(CC(=O)Nc1cc(C)ccn1)=N\NC(=O)c1ccc(C)cc1 | inactive
O=C(Nc1nc(-c2ccccc2)cs1)C1CCCCN1S(=O)(=O)c1ccccc1 (centres undefined) | inconclusive: 18.3 µM [inhibitor, single point]
CCS(=O)(=O)n1nc(-c2ccco2)nc1SC | inactive
C=CCc1cccc2cc(C(=O)Nc3ccc(F)cc3)c(=O)oc12 | inconclusive: 10 µM [activator, partial curve, poor fit]
Cc1ccc(NC(=O)CCSc2nc(-c3ccco3)cc(C(F)(F)F)n2)cc1F | inconclusive: 35.5 µM [inhibitor, partial curve, poor fit]
C/C(=N\NC(=O)c1nnn(-c2nonc2N)c1C(C)C)c1ccncc1 | inconclusive: 0.562 µM [activator, full curve, poor fit]
Cc1cccc(C(=O)Nc2nnc(Cc3ccccc3)s2)c1 | inactive
CCOC(=O)CNC(=O)c1c(C)nn(-c2ccccc2)c1Cl | inactive
O=C(N/N=C/c1c[nH]c2ccccc12)c1ccc2c(c1)OCCO2 | inconclusive: 35.5 µM [inhibitor, single point]
C=Cc1ccc(Cn2c(C)c(CNCCc3ccccc3C)c(C(=O)O)c2C)cc1 | inconclusive: 5.62 µM [inhibitor, single point]
COC(=O)c1ccc(OC(=O)/C=C/c2ccco2)cc1 | inactive
FC(F)(F)Oc1ccc2c(c1)NC(c1ccncc1)=NC(c1cccs1)=N2 | inconclusive: 11.2 µM [inhibitor, single point]
CCOC(=O)/C(C#N)=C\c1c(OCC)n(CC)c2ccccc12 | inconclusive: 6.31 µM [inhibitor, single point]
O=C(CCC1CCCCC1)Nc1cc(C(F)(F)F)ccc1N1CCOCC1 | inconclusive: 10 µM [inhibitor, partial curve, poor fit]
Cn1nc(C(F)(F)F)c(C(=O)Nc2ccc(F)cc2F)c1Oc1cccc(Cl)c1 | inactive
Cc1cc(C)nc(NS(=O)(=O)c2ccc(NC(=O)c3ccc(S(=O)(=O)N4CC(C)OC(C)C4)cc3)cc2)n1 (centres undefined) | inactive
CN(C)S(=O)(=O)c1ccc(N2CCOCC2)c(C(=O)O)c1 | inconclusive: 14.6 µM [activator, partial curve, poor fit]

Structure (SMILES) | Potency
Cc1cc(C(=O)O)oc(=O)c1 | inactive
Cn1nc(C(C)(C)C)c(NC(=O)c2sccc2Cl)c1C(C)(C)C | inconclusive: 15.8 µM [inhibitor, single point]
O=C(NCc1cn2ccccc2n1)c1ccccc1 | inconclusive: 5.62 µM [inhibitor, single point]
COc1cc(/C=N/NC(=O)C(N)=O)ccc1OC(=O)c1cccs1 | inconclusive: 11.2 µM [inhibitor, single point]
COc1ccc(CN2CCN(C(=O)c3ccccc3C(=O)c3ccccc3)CC2)cc1OC | inconclusive: 35.5 µM [inhibitor, single point]
COc1cc(NC(=O)CCCC(=O)OCC(F)(F)C(F)F)nc(OC)n1 | inconclusive: 29.1 µM [inhibitor, single point]
O=C(NCC1CCN(c2ccc(S(=O)(=O)N3CCOCC3)cc2)CC1)c1cccc(Cl)c1 | inconclusive: 0.058 µM [inhibitor, full curve, poor fit]
CCOC(=O)N1CCN(C(=O)c2ccc3c(c2)NC(=O)/C(=C/c2ccccc2)S3)CC1 | inconclusive: 35.5 µM [inhibitor, single point]
CCOc1ccccc1N1CCN(C(=O)c2csc(C)c2CC)CC1 | inconclusive: 35.5 µM [inhibitor, single point]
C=C(c1ccccc1Cl)[n+]1ccccc1 | inconclusive: 0.316 µM [inhibitor, partial curve, poor fit]
Cc1ccc(NC(=O)c2cc([N+](=O)[O-])ccc2NCc2cccnc2)cc1Cl | inconclusive: 6.51 µM [inhibitor, full curve, poor fit]
COC(=O)CC1c2ccccc2C(Cc2ccc(OC)cc2)C(C)N1C(=O)OC (centres undefined) | inconclusive: 0.668 µM [inhibitor, partial curve]
CC(=O)Nc1ccccc1-c1ccc(C)o1 | inconclusive: 35.5 µM [activator, single point]
CC(=O)Nc1ccc(S(=O)(=O)N2CCC(c3nnnn3-c3ccccc3)CC2)cc1 | inconclusive: 1 µM [inhibitor, partial curve, poor fit]
Cc1nc2ccccc2n2c(O)c(CC(=O)O)cc12 | inactive
O=C(CCCCCN1C(=O)c2ccccc2C1=O)NCCc1nc2ccccc2[nH]1 | inconclusive: 0.891 µM [activator, partial curve, poor fit]
COc1ccc(OCc2cc(C(=O)N3C[C@@H](C)O[C@@H](C)C3)no2)c(Cl)c1 | inconclusive: 0.891 µM [activator, full curve]
O=C(CN1c2ccccc2Sc2ccccc21)NNC(=O)Nc1cccc(Cl)c1 | inconclusive: 25.1 µM [inhibitor, partial curve, poor fit]
COc1cc(NC(=O)CSc2nnc3ccc(-c4ccncc4)nn23)cc(OC)c1 | inconclusive: 5.62 µM [inhibitor, single point]
COc1ccc(C2(O)CCN(C(=O)Cc3cccnc3)CC2)cc1 | inconclusive: 8.91 µM [inhibitor, partial curve, poor fit]
CCc1cc2c(=O)n(Cc3ccco3)c(SCC(=O)N(C)C3CCS(=O)(=O)C3)nc2s1 (centres undefined) | inactive
O=c1oc2ccccc2c(N2CCCC2)c1CN1CCCC1 | inactive
OC(CN(Cc1ccccc1)Cc1ccccc1)c1ccccc1 (centres undefined) | inconclusive: 35.5 µM [inhibitor, partial curve, poor fit]

Structure (SMILES) | Potency
Cc1nc(C)c(C(=O)Nc2ccccc2-c2ccccc2)o1 | inconclusive: 5.17 µM [inhibitor, single point]
O=C(Nc1ccc(N2CCN(C(=O)c3cccs3)CC2)cc1)c1ccccc1F | inconclusive: 35.5 µM [inhibitor, single point]
Cc1nnc2n1N=CC=C(c1ccccc1)S2 | inconclusive: 25.9 µM [inhibitor, partial curve, poor fit]
CCOc1ccc(NC(=S)N2CCC(NC(=O)c3ccco3)CC2)cc1 | inactive
CC(Oc1ccc(Cl)cc1Cl)C(=O)Nc1ccc(OCC(=O)O)cc1 (centres undefined) | inactive
COc1cc2c(c(OC)c1)C(=O)OC(C)CCCC(=O)CCCCC2 (centres undefined) | inconclusive: 4.47 µM [inhibitor, single point]
CC(=O)N=C1SC2CS(=O)(=O)CC2N1c1ccc(-c2nc3ccc(C)cc3s2)cc1 (centres undefined) | inactive
O=C1C(Nc2ccccc2)=C/C(=N/S(=O)(=O)c2cccs2)c2ccccc21 | active: 4.11 µM
CCc1ccc(C(C)(O)C(CN2CCOCC2)c2ccccc2)cc1 (centres undefined) | inactive
COc1ccc2c(c1)sc(N)[n+]2Cc1cc(C)cc2cccnc12 | inconclusive: 14.1 µM [inhibitor, partial curve]
CCOC(=O)c1ccc(S(=O)(=O)N2CCC(C(=O)N3CCN(c4ccccc4OC)CC3)CC2)cc1 | inactive
CC(C)c1ccc(S(=O)(=O)NC2CCCC2)cc1 | inconclusive: 2.51 µM [inhibitor, full curve, poor fit]
COc1ccc(Cl)cc1-c1n[nH]c(=S)n1C1CCCCC1 | inconclusive: 1.41 µM [inhibitor, full curve]
CCOc1ccc(NC(=O)C2C3CC/C=C\CCC32)cc1 (centres undefined) | inactive
Cc1nc(NC(=O)CSc2nnc(-c3ccccc3)c(-c3ccccc3)n2)c(Cl)cc1Cl | inactive
COc1ccc(Nc2cc(C(=O)NCCCN3CCN(c4ccccc4F)CC3)c3ccccc3n2)c(OC)c1 | inactive
COc1ccc(NC(=S)N/N=C2\CC(C)(C)Oc3ccc(O)cc32)cc1 | inactive
COc1cccc(CN2c3ccccc3-c3nc(SCC(=O)Nc4ccccc4Cl)ncc3S2(=O)=O)c1 | inconclusive: 1 µM [inhibitor, single point]
O=C(NCCc1ccc(F)cc1)Nc1ccc([N+](=O)[O-])cc1 | inconclusive: 35.5 µM [inhibitor, single point]
CCS(=O)(=O)N1CCCC(C(=O)N2CCC3(CC2)OCCO3)C1 (centres undefined) | inconclusive: 1.26 µM [activator, single point]
COc1ccccc1C(=O)Nc1ccc(N2CCCCC2)cc1 | active: 7.94 µM
CCOc1cc(C)c(C(C)C)cc1S(=O)(=O)N1CC(C)OC(C)C1 (centres undefined) | inconclusive: 25.1 µM [inhibitor, single point]
COC(=O)c1cc2oc3ccccc3c2n1Cc1ccc(Cl)cc1 | inconclusive: 5.62 µM [activator, single point]

Exported in CSV form: 2 of the compounds above
Structure (SMILES),Potency
CC(=O)N=C1SC2CS(=O)(=O)CC2N1c1ccc(-c2nc3ccc(C)cc3s2)cc1 (centres undefined),inactive
O=C(NCCc1ccc(F)cc1)Nc1ccc([N+](=O)[O-])cc1,"inconclusive: 35.5 µM [inhibitor, single point]"
